This data set relates to JumpIn-DAT cells. Conditions: variable slope model.

Where two headings read alike, the source gives them in different places.

Take `Cl.NCCc1ccc(O)c(O)c1` [Dopamine, dopamine hydrochloride]: the “slope ± SEM (pseudo-Hill slope of dopamine concentration-effect curve)” value worked out at 0.8 ± 0.1 (JumpIn-DAT +dox + 10 µM GBR12909), 0.7 ± 0.1 (JumpIn-DAT +dox + 10 µM cocaine) and 0.8 ± 0.1 (JumpIn-DAT –dox).
